Experimental data as given in the supplement of paper PMC12067093, “Discovery and optimisation of a covalent ligand for TRIM25 and its application to targeted protein ubiquitination” (Chemical Science, 2025).
Some of the results follow.

Protein sequences, listed by entry. Tags and fused reporters are not part of them. Lines headed by an entry give the natural chain unless they say otherwise; changes in a name come on top.
UniProt Q5BKZ1: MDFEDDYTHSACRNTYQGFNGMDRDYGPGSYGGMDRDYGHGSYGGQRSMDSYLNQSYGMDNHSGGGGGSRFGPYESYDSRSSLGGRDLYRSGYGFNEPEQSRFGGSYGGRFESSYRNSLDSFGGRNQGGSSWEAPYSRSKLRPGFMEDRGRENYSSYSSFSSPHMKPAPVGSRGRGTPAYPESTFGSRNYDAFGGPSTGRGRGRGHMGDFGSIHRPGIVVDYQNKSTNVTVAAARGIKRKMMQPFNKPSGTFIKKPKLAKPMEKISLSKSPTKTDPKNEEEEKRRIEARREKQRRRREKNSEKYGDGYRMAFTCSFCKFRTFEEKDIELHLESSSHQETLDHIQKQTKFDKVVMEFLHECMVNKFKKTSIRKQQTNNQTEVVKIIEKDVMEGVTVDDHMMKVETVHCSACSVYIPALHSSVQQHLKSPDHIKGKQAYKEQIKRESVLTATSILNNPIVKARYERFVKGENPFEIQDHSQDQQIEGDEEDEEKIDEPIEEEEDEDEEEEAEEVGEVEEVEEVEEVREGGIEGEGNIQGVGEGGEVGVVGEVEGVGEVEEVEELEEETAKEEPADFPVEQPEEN
UniProt Q8NF64: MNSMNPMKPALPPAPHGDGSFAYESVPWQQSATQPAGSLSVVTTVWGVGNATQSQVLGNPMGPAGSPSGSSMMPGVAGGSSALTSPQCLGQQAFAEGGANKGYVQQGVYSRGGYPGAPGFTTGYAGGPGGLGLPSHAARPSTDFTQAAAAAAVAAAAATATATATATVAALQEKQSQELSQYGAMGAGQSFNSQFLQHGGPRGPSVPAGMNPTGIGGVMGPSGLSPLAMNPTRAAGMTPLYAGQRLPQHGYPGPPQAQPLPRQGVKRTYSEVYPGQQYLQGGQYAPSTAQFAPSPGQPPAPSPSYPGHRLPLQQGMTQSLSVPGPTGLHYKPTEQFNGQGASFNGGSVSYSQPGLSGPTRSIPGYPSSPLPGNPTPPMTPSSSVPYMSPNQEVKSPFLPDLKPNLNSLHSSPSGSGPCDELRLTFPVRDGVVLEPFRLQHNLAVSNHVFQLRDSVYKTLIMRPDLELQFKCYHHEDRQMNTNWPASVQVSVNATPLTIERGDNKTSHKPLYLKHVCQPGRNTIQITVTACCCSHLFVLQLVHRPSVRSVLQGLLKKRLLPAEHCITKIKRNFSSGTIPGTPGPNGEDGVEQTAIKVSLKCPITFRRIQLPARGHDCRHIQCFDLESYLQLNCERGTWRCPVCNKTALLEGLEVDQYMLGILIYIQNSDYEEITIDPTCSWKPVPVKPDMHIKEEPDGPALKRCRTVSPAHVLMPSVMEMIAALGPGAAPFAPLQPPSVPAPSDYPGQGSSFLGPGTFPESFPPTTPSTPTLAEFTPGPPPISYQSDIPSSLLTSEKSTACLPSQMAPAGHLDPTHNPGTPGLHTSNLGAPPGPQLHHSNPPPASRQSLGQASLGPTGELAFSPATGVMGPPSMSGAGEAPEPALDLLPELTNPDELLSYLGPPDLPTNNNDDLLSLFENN
UniProt Q96ME7: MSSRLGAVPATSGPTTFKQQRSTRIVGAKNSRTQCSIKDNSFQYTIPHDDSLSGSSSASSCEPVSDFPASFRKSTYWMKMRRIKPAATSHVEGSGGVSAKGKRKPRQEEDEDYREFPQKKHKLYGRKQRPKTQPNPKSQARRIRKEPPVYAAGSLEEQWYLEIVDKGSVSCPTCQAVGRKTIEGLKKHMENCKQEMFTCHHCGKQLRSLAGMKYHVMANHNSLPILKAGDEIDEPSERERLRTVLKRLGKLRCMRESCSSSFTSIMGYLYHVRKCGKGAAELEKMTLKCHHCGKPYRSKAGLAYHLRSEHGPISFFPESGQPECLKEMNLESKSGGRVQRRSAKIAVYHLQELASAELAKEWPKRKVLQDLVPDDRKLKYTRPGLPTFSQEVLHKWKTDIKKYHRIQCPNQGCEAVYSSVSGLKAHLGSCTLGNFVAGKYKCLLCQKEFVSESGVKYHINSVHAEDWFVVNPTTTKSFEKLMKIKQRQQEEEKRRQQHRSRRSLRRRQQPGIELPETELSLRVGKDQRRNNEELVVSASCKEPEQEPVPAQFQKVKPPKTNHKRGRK
UniProt Q9Y3S2: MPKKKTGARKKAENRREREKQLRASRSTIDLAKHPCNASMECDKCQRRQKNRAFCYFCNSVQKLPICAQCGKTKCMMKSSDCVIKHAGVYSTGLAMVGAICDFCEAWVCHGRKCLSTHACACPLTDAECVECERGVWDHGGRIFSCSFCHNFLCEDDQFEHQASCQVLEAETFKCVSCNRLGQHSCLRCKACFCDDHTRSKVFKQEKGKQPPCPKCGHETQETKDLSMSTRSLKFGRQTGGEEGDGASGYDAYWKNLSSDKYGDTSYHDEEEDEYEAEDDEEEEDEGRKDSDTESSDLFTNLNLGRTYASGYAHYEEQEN
UniProt Q86UK7: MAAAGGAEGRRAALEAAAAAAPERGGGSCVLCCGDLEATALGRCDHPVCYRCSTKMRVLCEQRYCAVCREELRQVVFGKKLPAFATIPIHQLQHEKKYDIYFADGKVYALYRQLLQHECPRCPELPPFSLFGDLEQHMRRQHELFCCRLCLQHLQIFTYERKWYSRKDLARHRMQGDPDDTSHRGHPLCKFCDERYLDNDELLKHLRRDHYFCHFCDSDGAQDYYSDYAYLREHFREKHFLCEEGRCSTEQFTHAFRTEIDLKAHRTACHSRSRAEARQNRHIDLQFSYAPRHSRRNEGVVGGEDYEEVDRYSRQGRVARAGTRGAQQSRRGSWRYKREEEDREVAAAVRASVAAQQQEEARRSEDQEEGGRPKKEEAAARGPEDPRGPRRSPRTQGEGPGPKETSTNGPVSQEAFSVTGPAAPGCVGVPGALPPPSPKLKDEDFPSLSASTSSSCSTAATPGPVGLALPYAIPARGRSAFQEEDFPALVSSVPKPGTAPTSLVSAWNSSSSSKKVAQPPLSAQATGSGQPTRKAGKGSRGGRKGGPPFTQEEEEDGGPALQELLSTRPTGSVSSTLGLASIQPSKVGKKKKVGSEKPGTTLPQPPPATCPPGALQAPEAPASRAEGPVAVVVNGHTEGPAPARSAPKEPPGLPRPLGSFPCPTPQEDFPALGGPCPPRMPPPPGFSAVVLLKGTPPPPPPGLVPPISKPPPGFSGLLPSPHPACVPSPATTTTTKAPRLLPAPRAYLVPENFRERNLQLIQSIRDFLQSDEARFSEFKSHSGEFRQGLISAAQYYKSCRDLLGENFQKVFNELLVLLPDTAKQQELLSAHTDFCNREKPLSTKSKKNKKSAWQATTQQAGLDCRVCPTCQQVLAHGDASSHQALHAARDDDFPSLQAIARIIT
UniProt O60281: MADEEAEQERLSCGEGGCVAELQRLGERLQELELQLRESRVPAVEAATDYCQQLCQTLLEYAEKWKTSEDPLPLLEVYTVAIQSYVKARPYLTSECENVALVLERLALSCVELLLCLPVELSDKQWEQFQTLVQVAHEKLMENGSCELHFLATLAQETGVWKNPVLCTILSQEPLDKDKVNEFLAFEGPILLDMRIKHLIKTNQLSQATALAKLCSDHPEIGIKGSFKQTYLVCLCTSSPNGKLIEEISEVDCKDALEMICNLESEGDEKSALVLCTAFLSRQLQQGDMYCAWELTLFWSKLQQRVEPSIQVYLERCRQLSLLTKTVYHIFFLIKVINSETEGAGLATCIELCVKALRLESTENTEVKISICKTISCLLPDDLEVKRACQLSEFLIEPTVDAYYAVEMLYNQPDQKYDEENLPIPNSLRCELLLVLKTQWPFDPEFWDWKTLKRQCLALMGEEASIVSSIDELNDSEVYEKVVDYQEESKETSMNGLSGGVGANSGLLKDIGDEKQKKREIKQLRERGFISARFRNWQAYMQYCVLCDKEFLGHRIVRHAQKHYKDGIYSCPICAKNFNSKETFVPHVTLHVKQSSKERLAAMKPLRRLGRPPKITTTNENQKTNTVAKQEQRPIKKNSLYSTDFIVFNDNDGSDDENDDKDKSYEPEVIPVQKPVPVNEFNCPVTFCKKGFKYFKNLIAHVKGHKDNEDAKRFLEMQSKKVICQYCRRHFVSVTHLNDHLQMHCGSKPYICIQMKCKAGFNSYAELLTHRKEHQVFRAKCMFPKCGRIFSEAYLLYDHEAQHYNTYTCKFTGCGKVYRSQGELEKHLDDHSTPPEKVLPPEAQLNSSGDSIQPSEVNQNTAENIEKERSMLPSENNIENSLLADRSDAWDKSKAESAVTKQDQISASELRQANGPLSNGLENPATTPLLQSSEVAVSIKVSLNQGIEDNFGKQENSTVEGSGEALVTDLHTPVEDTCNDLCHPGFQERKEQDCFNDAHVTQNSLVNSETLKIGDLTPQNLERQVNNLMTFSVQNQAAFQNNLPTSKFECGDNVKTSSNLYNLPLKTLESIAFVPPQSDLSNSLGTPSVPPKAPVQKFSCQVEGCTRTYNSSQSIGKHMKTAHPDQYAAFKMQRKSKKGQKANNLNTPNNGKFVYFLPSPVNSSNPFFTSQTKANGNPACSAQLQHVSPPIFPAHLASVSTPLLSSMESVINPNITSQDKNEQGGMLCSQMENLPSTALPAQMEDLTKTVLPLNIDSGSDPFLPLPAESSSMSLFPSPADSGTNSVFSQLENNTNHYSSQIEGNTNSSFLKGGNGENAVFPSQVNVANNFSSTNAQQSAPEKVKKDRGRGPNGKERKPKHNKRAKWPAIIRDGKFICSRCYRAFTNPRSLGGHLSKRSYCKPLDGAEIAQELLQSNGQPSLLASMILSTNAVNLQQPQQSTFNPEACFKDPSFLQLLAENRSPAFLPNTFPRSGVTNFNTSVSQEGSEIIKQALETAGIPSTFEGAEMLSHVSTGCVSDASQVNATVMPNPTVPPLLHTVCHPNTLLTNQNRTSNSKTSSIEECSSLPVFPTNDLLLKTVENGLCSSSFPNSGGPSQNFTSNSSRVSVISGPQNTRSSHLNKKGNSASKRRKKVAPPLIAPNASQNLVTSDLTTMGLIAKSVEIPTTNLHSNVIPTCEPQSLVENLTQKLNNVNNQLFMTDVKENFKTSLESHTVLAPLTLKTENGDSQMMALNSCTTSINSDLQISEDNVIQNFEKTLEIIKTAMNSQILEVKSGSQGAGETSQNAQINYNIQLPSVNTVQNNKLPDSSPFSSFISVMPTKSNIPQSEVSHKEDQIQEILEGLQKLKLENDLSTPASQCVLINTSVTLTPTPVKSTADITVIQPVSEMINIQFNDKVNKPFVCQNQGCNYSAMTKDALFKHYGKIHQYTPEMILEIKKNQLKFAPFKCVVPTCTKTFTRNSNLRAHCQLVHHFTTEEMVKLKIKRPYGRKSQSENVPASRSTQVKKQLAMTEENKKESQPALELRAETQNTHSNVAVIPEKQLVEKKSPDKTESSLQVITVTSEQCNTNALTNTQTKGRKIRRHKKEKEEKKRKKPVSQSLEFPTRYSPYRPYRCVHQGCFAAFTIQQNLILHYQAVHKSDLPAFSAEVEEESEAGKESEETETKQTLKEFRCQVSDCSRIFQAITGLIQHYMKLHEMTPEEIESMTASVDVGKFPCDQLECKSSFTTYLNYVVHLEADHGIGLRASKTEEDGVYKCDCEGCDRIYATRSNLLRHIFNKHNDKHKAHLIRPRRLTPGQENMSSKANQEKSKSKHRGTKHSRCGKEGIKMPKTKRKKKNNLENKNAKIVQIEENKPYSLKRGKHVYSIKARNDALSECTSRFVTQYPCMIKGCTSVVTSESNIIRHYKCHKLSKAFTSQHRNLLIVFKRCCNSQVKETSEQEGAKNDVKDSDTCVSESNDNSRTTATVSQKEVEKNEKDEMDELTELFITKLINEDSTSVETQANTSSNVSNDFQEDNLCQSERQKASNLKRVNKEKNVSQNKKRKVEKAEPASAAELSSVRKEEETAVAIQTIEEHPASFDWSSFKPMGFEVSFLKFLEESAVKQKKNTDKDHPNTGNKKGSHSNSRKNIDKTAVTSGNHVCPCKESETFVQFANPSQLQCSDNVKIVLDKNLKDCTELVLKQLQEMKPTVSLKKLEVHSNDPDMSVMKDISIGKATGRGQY
UniProt Q9UK33: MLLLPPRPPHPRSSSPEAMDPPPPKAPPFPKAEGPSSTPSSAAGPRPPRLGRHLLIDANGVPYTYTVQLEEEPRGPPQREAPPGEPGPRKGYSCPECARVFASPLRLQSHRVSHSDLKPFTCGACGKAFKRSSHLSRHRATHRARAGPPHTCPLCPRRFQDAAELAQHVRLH
UniProt Q96B54: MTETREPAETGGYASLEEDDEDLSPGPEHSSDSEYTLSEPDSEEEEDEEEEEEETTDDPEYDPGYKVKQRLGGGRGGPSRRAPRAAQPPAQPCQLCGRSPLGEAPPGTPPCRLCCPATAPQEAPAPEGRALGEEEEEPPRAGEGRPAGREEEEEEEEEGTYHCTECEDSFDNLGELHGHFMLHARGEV
UniProt Q8N8Y5: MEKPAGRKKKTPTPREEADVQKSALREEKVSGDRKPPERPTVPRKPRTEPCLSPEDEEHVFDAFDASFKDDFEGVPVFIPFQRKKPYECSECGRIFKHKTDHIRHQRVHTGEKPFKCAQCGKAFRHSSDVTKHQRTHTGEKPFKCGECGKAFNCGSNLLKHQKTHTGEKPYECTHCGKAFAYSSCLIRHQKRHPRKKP

Compound: Cc1cc(ccc1-c1ccccc1)C(=O)N1CCCN(CC1)C(=O)CCl [compound 10]
Test: probe-labelled cysteine peptide fold change vs DMSO (competition) (log2 fold change); higher = less target engagement (more negative = stronger competition)
Conditions: THP-1, incubation time: 4 h
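Note: competitive profiling in live THP-1 cells: cysteine peptides tagged with an iodoacetamide desthiobiotin (IA-DTB) probe, intensity after compound treatment relative to DMSO-treated cells.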

| Target | probe-labelled cysteine peptide fold change (10 µM) | probe-labelled cysteine peptide fold change (50 µM) |
| --- | --- | --- |
| ZNF710_Q8N1W2_91_ALEEPAEEEVLEVEAACEK (UniProt Q8N1W2) | -0.174 | 0.013 |
| ZNF638_Q14966_1933_AGFFCPICSLFYSGEK (UniProt Q14966) | 0.108 | 0.107 |
| ZNF326_Q5BKZ1_12_MDFEDDYTHSACR (UniProt Q5BKZ1) | -0.0724 | 0.758 |
| ZMIZ2_Q8NF64_418_SPFLPDLKPNLNSLHSSPSGSGPCDELR (UniProt Q8NF64) | -0.102 | -0.577 |
| ZNF592_Q92610_201_FPVPELHMFDHFCK (UniProt Q92610) | -0.148 | -0.161 |
| ZNF512_Q96ME7_171+174_GSVSCPTCQAVGR (UniProt Q96ME7) | 0.0329 | -0.62 |
| ZNF451_Q9Y4E5_940_IGCFFLHPR (UniProt Q9Y4E5) | -0.216 | -0.702 |
| ZNF512_Q96ME7_445_CLLCQK (UniProt Q96ME7) | -0.0136 | 0.148 |
| ZMYM4_Q5VZL5_1368_IEEEHLWECK (UniProt Q5VZL5) | 0.123 | -0.246 |
| ZNF687_Q8N1G0_91_NTVCPEQSEALAGGSAGDGAQAAGVTK (UniProt Q8N1G0) | -0.392 | -0.0527 |
| ZFYVE16_Q7Z3T8_292_EEVDVAVITAAECLK (UniProt Q7Z3T8) | -0.374 | -0.224 |
| ZNF592_Q92610_265_ELGTCSSVPPR (UniProt Q92610) | 0.0424 | -0.225 |
| ZNF281_Q9Y2X9_291+294_HVLIHTGERPFQCSQCSMGFIQK (UniProt Q9Y2X9) | -0.0697 | -0.111 |
| ZFPM1_Q8IX07_147_QAEPSPALTLLLVDEACWLR (UniProt Q8IX07) | 0.0696 | -0.102 |
| ZNF326_Q5BKZ1_314_MAFTCSFCK (UniProt Q5BKZ1) | -0.00707 | -0.272 |
| ZNF672_Q499Z4_204_VSDAHQCGVCGK (UniProt Q499Z4) | 0.113 | 0.151 |
| ZNF217_O75362_93_HVLMQHRPTLCEPAVLR (UniProt O75362) | -0.0938 | 0.0659 |
| ZFYVE16_Q7Z3T8_863_QPGVEGLCSK (UniProt Q7Z3T8) | -0.357 | -0.444 |
| ZMIZ2_Q8NF64_471_CYHHEDR (UniProt Q8NF64) | 0.0998 | 0.0374 |
| ZNF217_O75362_310_VAICQEVK (UniProt O75362) | -0.0678 | 0.428 |
| ZNF319_Q9P2F9_307_ESSELLQHPCTPSGERPFR (UniProt Q9P2F9) | 0.014 | -0.221 |
| ZMYM3_Q14202_314_MTCAHCR (UniProt Q14202) | -0.0797 | -0.364 |
| ZNF644_Q9H582_450_HLNVPRPYACR (UniProt Q9H582) | 0.184 | 0.248 |
| ZNF512B_Q96KM6_353_AADSLDTCPIPPK (UniProt Q96KM6) | 0.0974 | -0.351 |
| ZMYM4_Q5VZL5_1480_CSESVK (UniProt Q5VZL5) | -0.156 | -0.0857 |
| ZNF280C_Q8ND82_714_THTCQVIIENVSK (UniProt Q8ND82) | -0.0679 | 0.101 |
| ZNF277_Q9NRM2_137_INSTAPFEEQENYFLLCDVLPEDR (UniProt Q9NRM2) | 0.249 | 0.407 |

| Target | probe-labelled cysteine peptide fold change (10 µM) | probe-labelled cysteine peptide fold change (50 µM) |
| --- | --- | --- |
| ZNF106_Q9H2Y7_1307_GNSGSEACTSSFLR (UniProt Q9H2Y7) | -0.174 | -0.413 |
| ZGRF1_Q86YA3_2008_EIIILSCVR (UniProt Q86YA3) | 0.0751 | -0.35 |
| ZMIZ1_Q9ULJ6_763_HVQCFDLESYLQLNCER (UniProt Q9ULJ6) | -0.0815 | -0.163 |
| ZNF76_P36508_292_THTGERPYTCPEPHCGR (UniProt P36508) | 0.0197 | -0.0549 |
| ZNF330_Q9Y3S2_82_SSDCVIK (UniProt Q9Y3S2) | -0.0194 | -0.239 |
| ZNF24_P17028_189_HCDDDGRTENGALAPK (UniProt P17028) | -0.0729 | -0.0347 |
| ZNF598_Q86UK7_835_QQELLSAHTDFCNR (UniProt Q86UK7) | 0.0235 | -0.119 |
| ZNF430_Q9H8G1_138_CGHEDLQLR (UniProt Q9H8G1) | -0.195 | -0.412 |
| ZNF740_Q8NDX6_9_AQASLLACEGLAGVSLVPTAASK (UniProt Q8NDX6) | 0.0108 | -0.0293 |
| ZMYM3_Q14202_1073_CWVQSK (UniProt Q14202) | -0.162 | -0.435 |
| ZNF292_O60281_2454_DSDTCVSESNDNSR (UniProt O60281) | -0.0868 | -0.0607 |
| ZMYND8_Q9ULU4_1062_SCTQSATAPQQEADAEVNTETLNK (UniProt Q9ULU4) | 0.0332 | -0.0292 |
| ZNF131_P52739_235_EDGCPSDPTSK (UniProt P52739) | -0.195 | 0.0174 |
| ZNF14_P17017_42_NLVCLGK (UniProt P17017) | 0.0787 | 0.229 |
| ZNF597_Q96LX8_386_TCEESFALDSELACHQK (UniProt Q96LX8) | -0.109 | -0.443 |
| ZMYM2_Q9UBW7_331_VTCANCK (UniProt Q9UBW7) | -0.187 | -0.26 |
| ZNF512_Q96ME7_192_HMENCK (UniProt Q96ME7) | -0.00733 | -0.186 |
| ZNF143_P52747_364_THTGERPYYCTEPGCGR (UniProt P52747) | 0.155 | 0.34 |
| ZNF451_Q9Y4E5_741_CLQIMLDK (UniProt Q9Y4E5) | 0.0849 | -0.331 |
| ZNF451_Q9Y4E5_507_VCDDSGVIR (UniProt Q9Y4E5) | -0.125 | -0.101 |
| ZNF516_Q92618_165_KGAEGSACAPGEAK (UniProt Q92618) | 0.0165 | -0.317 |
| ZNF580_Q9UK33_122_VSHSDLKPFTCGACGK (UniProt Q9UK33) | -0.0566 | -0.194 |
| ZNF670_Q9BS34_339_THTGVKPYGCK (UniProt Q9BS34) | 0.0468 | 0.199 |
| ZNF516_Q92618_827_ECQPLLLAR (UniProt Q92618) | 0.21 | 0.235 |
| ZGPAT_Q8N5A5_180_SLKPCPFFLEGK (UniProt Q8N5A5) | -0.073 | -0.614 |
| ZNF551_Q7Z340_340_HECGECR (UniProt Q7Z340) | 0.102 | 0.508 |
| ZNF326_Q5BKZ1_314+317_MAFTCSFCK (UniProt Q5BKZ1) | -0.145 | -0.401 |

Single values from above.
probe-labelled cysteine peptide fold change (10 µM) with ZNF451_Q9Y4E5_741_CLQIMLDK (UniProt Q9Y4E5) reads 0.0849
probe-labelled cysteine peptide fold change (10 µM) with ZFYVE16_Q7Z3T8_863_QPGVEGLCSK (UniProt Q7Z3T8) reads -0.357
probe-labelled cysteine peptide fold change (10 µM) with ZMIZ2_Q8NF64_418_SPFLPDLKPNLNSLHSSPSGSGPCDELR (UniProt Q8NF64) reads -0.102
probe-labelled cysteine peptide fold change (50 µM) with ZNF330_Q9Y3S2_82_SSDCVIK (UniProt Q9Y3S2) reads -0.239

(listing goes on)

| Target | probe-labelled cysteine peptide fold change (10 µM) | probe-labelled cysteine peptide fold change (50 µM) |
| --- | --- | --- |
| ZNF428_Q96B54_114_LCCPATAPQEAPAPEGR (UniProt Q96B54) | -0.106 | -0.534 |
| ZMYND11_Q15326_258_DTCHELDELQLCK (UniProt Q15326) | 0.073 | 0.0974 |
| ZNF280C_Q8ND82_358_QNNESWENHTTCQHCYR (UniProt Q8ND82) | 0.182 | 0.258 |
| ZNF629_Q9UEG4_214_CFSWSSNLVQHQR (UniProt Q9UEG4) | -0.0842 | 0.138 |
| ZNF598_Q86UK7_44_CDHPVCYR (UniProt Q86UK7) | 0.0102 | -0.161 |
| ZNF292_O60281_1909_VNKPFVCQNQGCNYSAMTK (UniProt O60281) | -0.21 | -0.386 |
| ZNF521_Q96K83_537_QVHCDLSGSR (UniProt Q96K83) | -0.0949 | -0.342 |
| ZNF207_O43670_13_QLKPWCWYCNR (UniProt O43670) | 0.0726 | -0.69 |
| ZMYM3_Q14202_311+314_MTCAHCR (UniProt Q14202) | -0.199 | -0.448 |
| ZNF592_Q92610_175_HSDSYFPPPLGCGAVGGPVLEALAK (UniProt Q92610) | -0.00845 | -0.0644 |
| ZNF516_Q92618_165_GAEGSACAPGEAK (UniProt Q92618) | -0.148 | -0.0488 |
| ZNF189_O75820_610_TQETHECDACGEAFNCR (UniProt O75820) | 0.105 | -0.498 |
| ZNF512_Q96ME7_171_GSVSCPTCQAVGR (UniProt Q96ME7) | 0.135 | -0.0282 |
| ZNF460_Q14592_313_KPFACSECGK (UniProt Q14592) | 0.187 | 0.173 |
| ZNF574_Q6ZN55_656_CAAAAAQAPR (UniProt Q6ZN55) | 0.218 | 0.33 |
| ZNF618_Q5T7W0_668_SMHEVIELLNVCEDLAGSTGLAK (UniProt Q5T7W0) | 0.279 | 0.219 |
| ZNF280C_Q8ND82_690_CDFLADSSGLDR (UniProt Q8ND82) | -0.015 | 0.1 |
| ZFYVE1_Q9HBF4_302_CGLDVPLSTLGPAVIIFHETVHTQLLGSDHPSEVPEK (UniProt Q9HBF4) | -0.00207 | 0.0408 |
| ZNF280C_Q8ND82_734_STSTSEPTTGCSLK (UniProt Q8ND82) | -0.118 | -0.254 |
| ZMYM4_Q5VZL5_948_ALLCKPITQTK (UniProt Q5VZL5) | -0.197 | -0.499 |
| ZMYND11_Q15326_126_CLSDEFR (UniProt Q15326) | -0.00978 | 0.0128 |
| ZNF579_Q8NAF0_74_LSHSGLRPHACPLCPK (UniProt Q8NAF0) | 0.2 | 0.222 |
| ZNF451_Q9Y4E5_150_TGTINCGTK (UniProt Q9Y4E5) | -0.175 | -1.18 |
| ZNF296_Q8WUU4_117_CLQTFPLEAITAFMDHK (UniProt Q8WUU4) | 0.142 | 0.552 |
| ZNF483_Q8TF39_392_IHLGDRSQKCSK (UniProt Q8TF39) | -0.0771 | -0.64 |
| ZFP41_Q8N8Y5_154_AFNCGSNLLK (UniProt Q8N8Y5) | 0.0919 | -0.618 |
